## Library screening results

Protein sequences, listed by entry. Tags and fused reporters are not part of them.
UniProt E9BF75, entry or part of it: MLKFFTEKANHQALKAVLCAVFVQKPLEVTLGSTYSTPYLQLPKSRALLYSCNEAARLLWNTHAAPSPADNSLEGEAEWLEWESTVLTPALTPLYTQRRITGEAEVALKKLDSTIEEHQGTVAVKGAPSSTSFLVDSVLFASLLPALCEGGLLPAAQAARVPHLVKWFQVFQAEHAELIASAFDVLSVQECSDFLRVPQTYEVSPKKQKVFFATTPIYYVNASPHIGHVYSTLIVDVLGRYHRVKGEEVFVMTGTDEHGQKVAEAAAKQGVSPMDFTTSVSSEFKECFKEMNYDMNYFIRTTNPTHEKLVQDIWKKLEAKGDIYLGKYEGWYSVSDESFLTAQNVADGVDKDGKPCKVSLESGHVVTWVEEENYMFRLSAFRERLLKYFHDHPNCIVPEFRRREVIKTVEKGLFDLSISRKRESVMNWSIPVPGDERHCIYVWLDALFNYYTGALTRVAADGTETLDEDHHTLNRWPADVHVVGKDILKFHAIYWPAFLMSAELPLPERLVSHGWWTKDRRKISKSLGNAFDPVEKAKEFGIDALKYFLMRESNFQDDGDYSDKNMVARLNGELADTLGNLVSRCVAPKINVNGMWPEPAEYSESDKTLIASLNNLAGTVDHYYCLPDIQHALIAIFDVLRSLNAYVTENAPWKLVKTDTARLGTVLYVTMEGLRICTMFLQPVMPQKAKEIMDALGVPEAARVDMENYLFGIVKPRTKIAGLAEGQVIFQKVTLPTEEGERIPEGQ

Measurements from “University of Dundee, Small-Polar-MMV Screening Library” (2021), ChEMBL document CHEMBL3988442.

Results are percentages, as filed.
How 0% and 100% were set is not recorded. Most values in the screen are low, and negative values occur.
The compounds are a random part of those screened.

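Methionyl-tRNA synthetase (putative), Leishmania donovani (UniProt E9BF75). Primary screen of methionyl-tRNA synthetase; the read-out is not stated. The test concentration is not given. Values are per cent inhibition. Size under these conditions: about 68,000 compounds, about 24 of them at 50% or above in at least one test.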

* COCCN1CC[C@@H]2O[C@@H](COCC(=O)N3CCCC3)CC[C@@H]21 | 14.5%
* CC[C@H](C)[C@H](N)C(=O)Nc1nc(-c2cnc(N(C)CCO)nc2)cs1 | 28.88%
* O=C1CCCC2=C1C(c1ccccc1F)Nc1nonc1N2 (stereo unspecified) | 16.17%
* O=C(C1CCCN(Cc2cccc(F)c2)C1)N1CCc2sccc2C1 (stereo unspecified) | 19.93%
* Cc1ncsc1CNC(=O)N1CCN(Cc2ccccc2)C[C@H]1C | 22.03%
* Cc1c(C)n2c(SCC(=O)N3CCCCCC3)nnc2[nH]c1=O | -11.27%
* CCC(=O)N1CCC(Cc2nccnc2Nc2ccccn2)CC1 | 2.448%
* CN(C)C(=O)N1CCN(C)c2ncccc2C1 | 4.839%
* Clc1cccc2c1CCN(Cc1nc(CC3CC3)no1)C2 | 10.67%
* CNC(=O)C(C)(C)CNC(=O)Nc1ccncc1C | 8.711%
* CN(C)C(=O)CN1C[C@H]2CCN(c3ncccn3)CC[C@H]2S1(=O)=O | 8.795%
* Cc1nc(CCN)cc(N2CCCN(C(=O)c3ccco3)CC2)n1 | 26.76%
* COc1c(C)cnc(CN2CCCC(Cn3nc(C)nc3C)C2)c1C (stereo unspecified) | 15.49%
* Cc1cc(CSC2CCCN(c3cnn(C)c3)C2=O)no1 (stereo unspecified) | 7.932%
* CNC(=O)c1cn2cc(-c3cccc(Cl)c3)n(CC3CC3)c(=O)c2n1 | 9.756%
* CCn1c(CN2CCCC2)nnc1C1CCN(Cc2ccc(C)o2)CC1 | 8.148%
* Cn1c(CN2CCOCC2)cc(=O)c(O)c1CN1CCOCC1 | 17.07%
* Cc1cc(C)n(CC2CCCCN2CC(=O)NC2CCOCC2)n1 (stereo unspecified) | 4.819%
* N#CCCCS(=O)(=O)NC(=O)c1ccccc1F | 10.86%
* CS(=O)(=O)NCc1nnc2n1CCN(Cc1cccs1)C2 | 15.15%
* CNc1nc(C)c(C(=O)NCC(C)(C)N2CCCCC2)s1 | 7.937%
* CCN1CCC(N2CCN(C)C3(CCC(=O)N(CCOC)CC3)C2)CC1 (stereo unspecified) | 11.76%
* Cc1nc2c(cc1C(=O)O)CCN(CC1CC1)CC2 | 8.904%
* Cc1cc(C)nc(N2CCN(C(=O)c3cc(Cl)c[nH]3)CC2)n1 | 22.5%
* CCCn1nc(C)c(CN2CC3(CCOC3)CCC2=O)c1C (stereo unspecified) | 17.33%
* c1ccc(CCN2CCCC2c2cccc(Nc3nccs3)n2)cc1 (stereo unspecified) | 8.14%
* CN(c1cccnn1)[C@@H]1CC[C@@H]2CN(Cc3cccc(C(=O)O)c3)C[C@@H]21 | 11.56%
* CCN(Cc1ccncc1)C1CCCN(C/C=C/c2ccc(F)cc2)C1 (stereo unspecified) | 13.04%
* Cc1n[nH]c(C2CN(C(=O)c3ccc4c(c3)COC4)CCO2)n1 (stereo unspecified) | 5.476%
* CN(C)CC(=O)N1Cc2nc(C(=O)N3CCCN(C)CC3)oc2C1 | 9.87%
* CSC(CNS(C)(=O)=O)c1cccc(Cl)c1 (stereo unspecified) | 8.659%
* COc1cccc([C@@H]2CCN(Cc3c[nH]c(C)n3)C[C@H]2O)c1 | -0.3058%
* CN(Cc1ccco1)C[C@H]1OC[C@@H]2CCN(Cc3ccccn3)C[C@@H]21 | 7.527%
* Cc1ccc(C(=O)N2CCCC(n3cncn3)C2)o1 (stereo unspecified) | -8.189%
* Cc1ccccc1-c1noc(CN2CCc3cncnc3C2)n1 | 20%
* c1cnc(N2CCOC3(CCN(CC4CCCCC4)CC3)C2)nc1 | 14.98%
* CNC(=O)c1cc(-n2ccnc2-c2cnc(N(C)C)nc2)ccc1OC | 6.183%

The last 2 entries again:

| SMILES | Inhibition |
|---|---|
| `c1cnc(N2CCOC3(CCN(CC4CCCCC4)CC3)C2)nc1` | 14.98 |
| `CNC(=O)c1cc(-n2ccnc2-c2cnc(N(C)C)nc2)ccc1OC` | 6.183 |